Data reported in publication PMC7859218.

What was measured:
[1] = molecular target: T1, carcinoembryonic antigen (CEA) (UniProt P06731); assay: electrochemical sensor (cyclic voltammetry, impedance); conditions: aptamer on graphene-ZnO electrode, +0.8 V pulse, peak current decrease from 1 fg/ml CEA (LOD, not Kd); 5'-NH2; covalently immobilized via MTS/GMBS on ZnO nanorods; CEA diluted in 100 mM PBS, 10 min at room temperature, DI water wash; CV in 1 mM K3Fe(CN)6/K4Fe(CN)6; aptamer stock in 10 mM Tris-HCl, 1 mM EDTA, 0.1 M NaCl, pH 7.40; single-stranded DNA
T1 sequence (looked up, limits assumed): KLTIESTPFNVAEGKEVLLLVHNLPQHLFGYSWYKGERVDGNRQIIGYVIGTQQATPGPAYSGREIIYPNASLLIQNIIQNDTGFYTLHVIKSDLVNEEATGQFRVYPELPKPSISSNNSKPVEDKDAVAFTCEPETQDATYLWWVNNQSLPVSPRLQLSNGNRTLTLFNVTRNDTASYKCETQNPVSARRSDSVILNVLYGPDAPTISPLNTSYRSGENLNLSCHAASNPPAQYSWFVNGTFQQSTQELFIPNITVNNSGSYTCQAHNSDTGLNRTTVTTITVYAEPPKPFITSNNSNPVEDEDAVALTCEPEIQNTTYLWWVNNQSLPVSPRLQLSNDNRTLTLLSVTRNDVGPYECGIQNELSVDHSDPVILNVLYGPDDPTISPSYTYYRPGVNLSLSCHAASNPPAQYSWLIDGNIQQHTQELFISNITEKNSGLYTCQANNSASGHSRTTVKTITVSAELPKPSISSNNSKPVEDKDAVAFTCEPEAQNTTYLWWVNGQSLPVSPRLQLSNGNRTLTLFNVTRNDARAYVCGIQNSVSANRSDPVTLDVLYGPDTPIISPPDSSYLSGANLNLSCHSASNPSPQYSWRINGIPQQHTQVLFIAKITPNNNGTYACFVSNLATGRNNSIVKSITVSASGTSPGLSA

[2] = molecular target: T1, carcinoembryonic antigen (CEA); assay: electrochemical sensor (cyclic voltammetry); conditions: no external field, decrease at 100 fg/ml to 10 pg/ml CEA, not distinguishable from baseline at lower concentration; 5'-NH2; covalently immobilized via MTS/GMBS on ZnO nanorods; CEA diluted in 100 mM PBS, 10 min at room temperature, DI water wash; CV in 1 mM K3Fe(CN)6/K4Fe(CN)6; aptamer stock in 10 mM Tris-HCl, 1 mM EDTA, 0.1 M NaCl, pH 7.40; single-stranded DNA

ATACCAGCTTATTCAATT [CEA aptamer]: binds [1]; binds [2].

The exact form of at least one protein or probe is not confirmed. Where a protein sequence is shown, tags need not be part of it.
